No constants are given. Whether binding was seen depends on the method and setting. Binding can be weak; no strength is given. For some of these results: Where a sequence is shown, tags or fusion partners need not be part of it. For some of these results: In cells and extracts the contact can be indirect.
How the values were obtained:
[1] = target: T1, FLAG-tagged mouse perilipin 5 (Plin5), transgene of MHC-Plin5 mice (mouse) (UniProt Q8BVZ1); assay: native gel or EMSA; blue-native PAGE and two-dimensional blue-native/SDS-PAGE of homogenates of primary WT and MHC-Plin5 cardiomyocytes (1% Triton X-100), immunoblot for Plin5 and SERCA2
T1 sequence: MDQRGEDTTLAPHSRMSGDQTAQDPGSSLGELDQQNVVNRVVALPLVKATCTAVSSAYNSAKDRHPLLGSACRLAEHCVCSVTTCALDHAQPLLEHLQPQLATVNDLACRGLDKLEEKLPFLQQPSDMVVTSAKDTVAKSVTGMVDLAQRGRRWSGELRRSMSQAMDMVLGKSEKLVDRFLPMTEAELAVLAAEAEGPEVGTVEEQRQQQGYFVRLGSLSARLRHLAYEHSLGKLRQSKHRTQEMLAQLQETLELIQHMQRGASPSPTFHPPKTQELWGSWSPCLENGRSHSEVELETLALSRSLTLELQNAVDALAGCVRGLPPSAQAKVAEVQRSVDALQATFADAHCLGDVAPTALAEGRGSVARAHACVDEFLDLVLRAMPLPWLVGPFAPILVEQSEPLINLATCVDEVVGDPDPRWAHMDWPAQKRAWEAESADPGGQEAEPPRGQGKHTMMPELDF

[2] = target: T2, endogenous perilipin 5 (Plin5) of WT mouse cardiomyocytes (mouse (endogenous in primary cardiomyocytes)) (UniProt Q8BVZ1); assay: as above
T2 sequence: T1 sequence

[3] = target: T1, FLAG-tagged mouse perilipin 5 (Plin5), transgene of MHC-Plin5 mice (mouse); assay: co-IP; immunoprecipitation with perilipin 5 polyclonal antibody (26951-1-AP) on Dynabeads Protein A from lysates of primary WT and MHC-Plin5 cardiomyocytes; non-immune rabbit IgG as control; immunoblot for Plin5 and SERCA2
[4] = target: T2, endogenous perilipin 5 (Plin5) of WT mouse cardiomyocytes (mouse (endogenous in primary cardiomyocytes)); assay: as above
[5] = target: T1, FLAG-tagged mouse perilipin 5 (Plin5), transgene of MHC-Plin5 mice (mouse); assay: co-IP; FLAG immunoprecipitation (Pierce Anti-FLAG Magnetic Agarose) from lysates of primary MHC-Plin5 and WT cardiomyocytes; immunoblot for Plin5 and SERCA2
[6] = target: T1, FLAG-tagged mouse perilipin 5 (Plin5), transgene of MHC-Plin5 mice (mouse); assay: proximity ligation; in situ PLA (NaveniFlex MR Kit) on fixed, permeabilised primary WT and MHC-Plin5 cardiomyocytes with anti-Plin5 (26951-1-AP) and anti-SERCA2 (MA3-910); IgG controls
[7] = target: T2, endogenous perilipin 5 (Plin5) of WT mouse cardiomyocytes (mouse (endogenous in primary cardiomyocytes)); assay: as above

Measured: binding

sarcoplasmic/endoplasmic reticulum Ca2+ ATPase 2 (SERCA2) (from UniProt O55143-2)
binds: [1] | [2] | [3] | [4] | [5] | [6] | [7]

From article PMC9887753
